# Library screen at single concentrations

Chains of the proteins cited; added tags and fusions are not shown. Residues count along the entry.
UniProt Q4DA54, 1-478: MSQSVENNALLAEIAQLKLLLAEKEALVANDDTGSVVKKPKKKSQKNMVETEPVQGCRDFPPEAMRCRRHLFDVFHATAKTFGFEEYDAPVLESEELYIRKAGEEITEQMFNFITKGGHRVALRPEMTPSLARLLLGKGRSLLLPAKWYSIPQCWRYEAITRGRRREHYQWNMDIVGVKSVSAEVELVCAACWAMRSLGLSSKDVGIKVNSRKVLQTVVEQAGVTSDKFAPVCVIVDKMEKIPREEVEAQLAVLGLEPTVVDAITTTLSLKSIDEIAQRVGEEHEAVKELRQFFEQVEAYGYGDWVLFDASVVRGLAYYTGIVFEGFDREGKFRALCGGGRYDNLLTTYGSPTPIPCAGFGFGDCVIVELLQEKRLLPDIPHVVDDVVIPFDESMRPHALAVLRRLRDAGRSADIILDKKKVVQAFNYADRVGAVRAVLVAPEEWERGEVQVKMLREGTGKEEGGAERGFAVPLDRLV
UniProt A4I591, 1-473: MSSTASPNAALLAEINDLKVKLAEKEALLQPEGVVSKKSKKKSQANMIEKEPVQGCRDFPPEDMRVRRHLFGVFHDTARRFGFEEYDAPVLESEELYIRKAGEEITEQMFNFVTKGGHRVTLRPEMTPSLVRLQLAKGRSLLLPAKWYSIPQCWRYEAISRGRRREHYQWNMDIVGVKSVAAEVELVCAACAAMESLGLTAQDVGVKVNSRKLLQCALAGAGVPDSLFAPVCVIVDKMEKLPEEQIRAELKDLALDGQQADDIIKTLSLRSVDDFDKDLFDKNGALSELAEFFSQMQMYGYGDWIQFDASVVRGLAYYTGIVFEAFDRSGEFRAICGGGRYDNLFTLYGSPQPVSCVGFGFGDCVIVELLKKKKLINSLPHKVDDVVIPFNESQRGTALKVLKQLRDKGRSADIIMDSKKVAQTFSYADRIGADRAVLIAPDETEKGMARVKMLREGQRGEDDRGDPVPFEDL
UniProt P9WPC5, whole entry: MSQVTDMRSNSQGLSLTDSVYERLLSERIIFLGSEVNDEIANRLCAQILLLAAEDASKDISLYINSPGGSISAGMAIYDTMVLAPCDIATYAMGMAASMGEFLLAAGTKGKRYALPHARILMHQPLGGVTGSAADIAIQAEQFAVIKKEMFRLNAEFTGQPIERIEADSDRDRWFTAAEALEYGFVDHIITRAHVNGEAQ
UniProt P9WPC3, whole entry partner: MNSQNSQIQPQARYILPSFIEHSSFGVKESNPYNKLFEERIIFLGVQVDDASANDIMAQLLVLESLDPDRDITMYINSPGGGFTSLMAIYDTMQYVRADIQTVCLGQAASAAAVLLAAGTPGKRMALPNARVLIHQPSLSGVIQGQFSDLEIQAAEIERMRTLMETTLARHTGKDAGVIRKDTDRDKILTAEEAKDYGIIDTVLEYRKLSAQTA

Measurements from “University of Dundee, Small-Polar-MMV Screening Library” (2021), ChEMBL document CHEMBL3988442.

Toxoplasma: 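Assay of Toxoplasma gondii numbers, read through their beta-galactosidase reporter with a colour substrate. Tested at 10 µM. Higher reads as fewer parasites (inferred from which compounds were picked for retests). Size under these conditions: about 67,000 compounds, about 260 of them at 50% or above in at least one test.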
Leishmania in macrophages: 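Cell assay of Leishmania donovani living inside macrophages; the read-out is not stated. Concentration: 30 µM. Higher reads as stronger inhibition (inferred: compounds with an IC50 in retests scored well above the rest). Size under these conditions: about 69,000 compounds, about 1,000 of them at 50% or above in at least one test.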
TcHisRS: 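Histidine-tRNA ligase, Trypanosoma cruzi CL Brener (UniProt Q4DA54). Enzyme assay of histidyl-tRNA synthetase; the read-out is not stated. Compounds at 30 µM. Higher reads as stronger inhibition (inferred: compounds with an IC50 in retests scored well above the rest). Of about 69,000 compounds tested this way, about 31 (0.045%) reached 50% or more in at least one test.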
LiHisRS: 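Histidine-tRNA ligase, Leishmania infantum (UniProt A4I591). Enzyme assay of histidyl-tRNA synthetase; the read-out is not stated. Compounds at 30 µM. Direction is inferred from retests: higher values go with stronger inhibition. The assay is labelled LdHisRS but filed under L. infantum. Of about 69,000 compounds tested this way, about 410 (0.6%) reached 50% or more in at least one test.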
ClpP1P2: 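ClpP1P2, Mycobacterium tuberculosis (UniProt P9WPC5 and UniProt P9WPC3). Protease assay of ClpP1P2, read by the AMC dye that it sets free. Concentration: 50 µM. Higher reads as stronger inhibition, judged from the few compounds that gave an IC50. Most other retested compounds had strongly negative values. Size under these conditions: about 69,000 compounds, about 10 of them at 50% or above in at least one test.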
T. brucei: 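Whole-parasite assay of Trypanosoma brucei over 72 hours; the read-out is not stated. Tested at 30 µM. The record gives no direction; compounds that gave an IC50 in retests scored well above the rest, so higher reads as stronger inhibition. Values scatter widely below zero; nearly all retest evidence comes from the higher of the two concentrations used. Of about 64,000 compounds tested this way, about 940 (1.5%) reached 50% or more in at least one test.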

Each number is a percent effect as filed. The record does not define 0% and 100%; most values in the screen are far below 50% and negative numbers occur (in some assays of this library far below -100). Compounds were drawn at random from those tested, without regard to their results. Two or more numbers in one place are separate tests of the same structure; such repeats can differ widely. A dash means the value is not listed here; it may have been measured.

compound,Toxoplasma,Leishmania in macrophages,TcHisRS,LiHisRS,ClpP1P2,T. brucei
CN(C)S(=O)(=O)N1CC[C@]2(O)CCN(c3nccs3)C[C@@H]2C1,-,-,9.639%,20%,-8.439%,-
CN(C)[C@@H]1CCN(C(=O)c2ccccn2)[C@H]1Cc1ccncc1,-3.069%,1.172%,7.843%,18%,-10.04%,-2.889%
COC(=O)CN(C(=O)c1cccc(F)c1Cl)c1cccc(C)n1,-34.71%,-7.72%,0%,0%,-8.631%,-33.19%
C[C@@H]1CN(C(=O)c2ccncc2)CC[C@@]1(O)C1CCOCC1,-4.947%,13.03%,1.508%,18.4%,-17.76%,-9.917%
CCN1CCN(c2ccc(F)cc2C(C)NCc2nc(C)no2)CC1 (stereo not given),6.203%,-38.61%,0%,8.197%,4.43%,-9.948%
CS(=O)(=O)NC1CCN(C(=O)COCc2ccccc2)CC1,-2.619%,19.82%,4.545%,11.29%,3.327%,4.337%
CCN(CC1CCOC1)C(=O)c1cnc2onc(C)c2c1 (stereo not given),-1.424%,29.51%,7.059%,14.68%,-53.27%,-
Cc1ccc(-n2cc(CN3CCN(C)[C@@H]4CS(=O)(=O)C[C@@H]43)cn2)cc1,-,-,8.247%,11.43%,-6.471%,-
[H][C@@]12CCCC[C@@]1([H])CN(Cc1nc(Cc3ccccc3F)no1)CC2,4.869%,24.26%,-,-,-,-5.762%
Cc1cc(C)cc(-c2ccc(CC3(C(=O)O)CCOCC3)cc2)c1,17.36%,-23.64%,-0.5405%,-2.778%,5.064%,-42.34%
CC(C)C(NC(=O)C1CCCC1)c1cc(O)nc(-c2cccnc2)n1 (stereo not given),33.79%,-26.27%,1.695%,-1.399%,1.542%,-22.84%
[H][C@]12CN(C(=O)c3cnccc3C)CC[C@@]1(O)CCN(C1CCCCC1)C2,0.4183%,-0.3196%,-,-,-,-176.1%
OCCn1nccc1C1CCN(CCOc2ccccc2)CC1,-34.72%,-5.672%,0.578%,14.91%,-12.72%,-8.75%
CC[C@H]1CN2CC[C@H]1C[C@@H]2CNC(=O)Nc1cc(OC)cc(OC)c1,-,-,16.83%,22.22%,-9.388%,-
CC(C)N1CCc2[nH]nc(C(=O)N3CCN(C)CC3)c2C1.O=C(O)C(F)(F)F.O=C(O)C(F)(F)F.O=C(O)C(F)(F)F,-3.769%,10.45%,-,-,-,-12.61%
CC(NC(=O)c1cccc(CN2CCN(C)CC2)c1)c1nccs1 (stereo not given),16.79%,15.81%,-3.59%,7.937%,-8.135%,11.93%
Oc1ccc(Br)c(CNc2cccc(-c3nnc[nH]3)c2)c1,-28.47%,51.72%,3.03%,-15.56%,-0.6866%,56.16%
Cc1cnn(C2CN(Cc3nnc(Cc4ccccc4)o3)C2)c1,5.369%,5.329%,6.061%,6.349%,-1.086%,7.031%
[H][C@@]12CCN(C(=O)c3ccoc3)C[C@@]1([H])O[C@H](c1nnc(C3CC3)o1)C2,-0.2909%,31.27%,-,-,-,-48.23%
c1cc(CN2CCC(n3cc(CN4CCCC4)nn3)CC2)cs1,2.17%,-3.114%,1.19%,2.222%,-18.52%,-25.17%
CC(=O)N1CCC1c1cc(N2CCSCC2)nc(C)n1 (stereo not given),-26.97%,3.001%,6.818%,14.49%,-3.256%,-19.29%
NCCC1CN(Cc2cnc3c(-c4ccccc4)cnn3c2)CCO1 (stereo not given),11.27%,20.07%,7.65%,8.772%,-18.81%,-75.21%
CC(C)c1nnc(N2C[C@@H]3CC[C@H](C2)N(Cc2ccccc2)C3)s1,-,-,30.69%,59.52%,-6.676%,-
CCN(CC)S(=O)(=O)NC1CCCc2nc(-c3ccccc3)ncc21 (stereo not given),6.367%,4.934%,1.064%,10%,-8.597%,1.575%
COc1cccc(-c2c[nH]c(C3CCCN3)n2)c1 (stereo not given),-,-,7.006%,9.859%,8.851%,-
CN(C)CC(=O)N1CCc2ncnc(-c3cncnc3)c2CC1.O=C(O)C(F)(F)F,-8.945%,-9.379% & 12.92%,-,-,-,-33.17%
COc1ccc(C)cc1NC(=O)CNc1ccn(CC(N)=O)n1,-1.016%,1.971%,17.24%,14.91%,9.314%,-7.069%
CN1CCCN(C[C@@H]2CN(c3nc(C(N)=O)cs3)C[C@@H]2CO)CC1,4.924%,5.294%,9.045%,8.235%,-0.5933%,-32.87%
Cc1cnn(CC(C)Nc2cnc3ccccc3n2)c1 (stereo not given),5.603%,-23.07%,4.386%,7.143%,-313.6%,-41.01%
CO[C@@H]1CCN(Cc2ccoc2)C[C@@H]1Cc1ccccc1,-,-,10.61%,7.692%,-15.66%,-
Cc1ccc(C)c(-n2ccc3nc(N4CCCC4)ncc3c2=O)c1,-1.793%,28.19%,1.639%,0%,-5.319%,-16.84%
[H][C@]12CCN(S(=O)(=O)c3ccc(C)cc3)[C@@]1([H])[C@@H](NC(=O)c1ccncc1)C2,9.466%,33.66%,-,-,-,2.432%
[H][C@@]12CCN(C(=O)c3cccn3C)C[C@@]1([H])O[C@H](c1ccncn1)C2,-2.098%,17.95%,-,-,-,-
CN1CC(=O)N(c2cccc(F)c2)CC12CCN(Cc1cccnc1)C2.O=C(O)C(F)(F)F.O=C(O)C(F)(F)F.O=C(O)C(F)(F)F (stereo not given),-2.106%,15.23%,-,-,-,-3.891%
COCCCSc1ccc(NCc2ccc(C)cn2)cc1,-4.489%,36.5%,9.36%,6.494%,-8.837%,-1.242%
Cc1ccc(N2CCC3(CN(Cc4ccncc4)CCC3(F)F)C2)nn1.O=C(O)C(F)(F)F.O=C(O)C(F)(F)F (stereo not given),7.648%,25.87%,-,-,-,-39.6%
N#Cc1cnn(C(=O)COc2ccccc2F)c1N,2.021%,7.707%,7.389%,-459.2%,-2.773%,-32.47%
Cn1cc(N2CC3(CCN(C(=O)c4cccn4C)CC3)OCC2=O)cn1,-50.46%,7.064%,1.961%,10%,-6.295%,-31.75%
CC(C(=O)O)N1CC2(CCC1=O)CCN(CCc1ccccc1)CC2 (stereo not given),4.901%,-13.39%,6.061%,14.75%,-3.454%,-11.37%
Cc1cc(-c2cncnc2)ccc1OCC(N)=O,-0.634%,-0.7034%,-1.571%,8.602%,-6.011%,-39.83%
O=C(O)C(F)(F)F.[H][C@@]12CCN(C(=O)c3cscn3)[C@@]1([H])CCN2C1CCOC1 (stereo not given in full),11.74%,-0.8352%,-,-,-,-46.8%
Cc1[nH]nc(CCC(=O)N2C[C@H]3CC[C@@H]2CN(C(=O)N(C)C)C3)c1C,-,-,11.9%,13.95%,-18.35%,-
CN1C[C@@H](F)[C@@H](OCc2nc3ccc(C#N)cc3[nH]2)C1,0.9524%,12.94%,-1.98%,25%,-10.44%,-0.5996%
CCS(=O)(=O)CCNC(=O)C1(c2cccc(Cl)c2)CC1,-3.889%,-3.095%,2.051%,12.24%,4.38%,0.1401%
Cc1ccc(CCC(=O)N2CCOCC2)cc1Cl,-14.16%,14.34%,0%,10.96%,-12.35%,0.3995%
COCC1CN(CC2CC2)Cc2nn(CC3CC3)cc21 (stereo not given),-,-,7.563%,-6.422%,-0.6935%,-
CC(NC(=O)C(C)(C)C)c1cc(O)nc(-c2cccnc2)n1 (stereo not given),-5.734%,9.442%,6.215%,9.79%,4.715%,-7.147%
COc1ccc(CN(C)Cc2cccc(C#N)c2)c(OC)c1,2.136%,12.03%,0%,18.18%,11.98%,-20.05%
c1n[nH]cc1CCCN1CCC(OC2CCCCC2)CC1,-2.347%,10.98%,5.263%,8.219%,-5.775%,-36.44%
NC1CCc2c(ccc(=O)n2CC2CC2)C1 (stereo not given),-2.817%,11.96%,-0.9709%,0%,-9.377%,-11.52%
O=C(c1cccnc1N1CCCC1)N1CCOC(c2ccccc2)C1 (stereo not given),-34.72%,12.41%,7.216%,11.43%,-7.419%,-22.08%
Cc1ccc2cc(CN(C)Cc3nccs3)c(=O)[nH]c2c1,-37.79%,9.401%,1.932%,12.5%,-47.36%,-
CC(C)Nc1ncnc2c1CCN(C(=O)NCc1cccnc1)CC2,-,-,3.279%,10.53%,-14.19%,-

The first 5 entries again:

* CN(C)S(=O)(=O)N1CC[C@]2(O)CCN(c3nccs3)C[C@@H]2C1 | TcHisRS: 9.639%; LiHisRS: 20%; ClpP1P2: -8.439%
* CN(C)[C@@H]1CCN(C(=O)c2ccccn2)[C@H]1Cc1ccncc1 | Toxoplasma: -3.069%; Leishmania in macrophages: 1.172%; TcHisRS: 7.843%; LiHisRS: 18%; ClpP1P2: -10.04%; T. brucei: -2.889%
* COC(=O)CN(C(=O)c1cccc(F)c1Cl)c1cccc(C)n1 | Toxoplasma: -34.71%; Leishmania in macrophages: -7.72%; TcHisRS: 0%; LiHisRS: 0%; ClpP1P2: -8.631%; T. brucei: -33.19%
* C[C@@H]1CN(C(=O)c2ccncc2)CC[C@@]1(O)C1CCOCC1 | Toxoplasma: -4.947%; Leishmania in macrophages: 13.03%; TcHisRS: 1.508%; LiHisRS: 18.4%; ClpP1P2: -17.76%; T. brucei: -9.917%
* CCN1CCN(c2ccc(F)cc2C(C)NCc2nc(C)no2)CC1 (stereo not given) | Toxoplasma: 6.203%; Leishmania in macrophages: -38.61%; TcHisRS: 0%; LiHisRS: 8.197%; ClpP1P2: 4.43%; T. brucei: -9.948%